Laboratory results from PubChem BioAssay AID720504 (National Center for Advancing Translational Sciences (NCATS), 2013).
Among all 360,000 compounds or so, about 10,000 (2.8%) were called active. This list was built around the results that the source calls inconclusive (neither active nor inactive); the mix of calls is not that of the screen. Calls follow the shape of the dose curve; as a rule, active = well fitted inhibition curve with a large enough effect; inconclusive = small, poorly fitted or top-dose-only effect; inactive = flat fitted curve, though single readings scatter. Potencies of inconclusive entries are doubtful fits and often do not repeat.

Chains of the proteins cited; added tags and fusions are not shown.
UniProt P53350, whole entry, looked up: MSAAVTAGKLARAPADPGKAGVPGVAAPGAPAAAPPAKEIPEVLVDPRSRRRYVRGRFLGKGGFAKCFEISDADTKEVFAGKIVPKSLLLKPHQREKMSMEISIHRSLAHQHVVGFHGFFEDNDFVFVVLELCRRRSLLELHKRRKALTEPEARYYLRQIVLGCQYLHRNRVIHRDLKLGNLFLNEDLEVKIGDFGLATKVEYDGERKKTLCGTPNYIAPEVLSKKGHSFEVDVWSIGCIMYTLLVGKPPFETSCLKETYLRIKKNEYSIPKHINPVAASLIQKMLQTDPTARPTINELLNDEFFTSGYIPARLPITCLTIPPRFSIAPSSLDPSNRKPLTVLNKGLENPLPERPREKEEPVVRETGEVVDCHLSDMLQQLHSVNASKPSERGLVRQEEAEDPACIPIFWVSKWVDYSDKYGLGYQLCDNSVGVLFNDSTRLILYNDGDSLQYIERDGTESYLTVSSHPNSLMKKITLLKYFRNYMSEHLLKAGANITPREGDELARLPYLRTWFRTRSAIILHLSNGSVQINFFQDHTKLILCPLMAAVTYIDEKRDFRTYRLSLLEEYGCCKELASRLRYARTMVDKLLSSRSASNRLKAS

Each compound was assayed against Serine/threonine-protein kinase PLK1 (Homo sapiens) (UniProt P53350) (assay: qHTS for Inhibitors of PLK1-PDB (polo-like kinase 1 - polo-box domain): Primary Screen). Settings: Plk1 PBD binding of FITC phosphopeptide, fluorescence polarization.
% is scaled to controls: 0 for no effect and ±100 for the full control effect; potency is read from the fitted curve at half-maximal effect.
Also: nearly all actives have a fitted effect of over 65% in size.
For max response, negative = inhibition in this document: series mostly up to about 57 µM.

Row | Structure (SMILES) | max response, negative = inhibition | Potency
1 | COc1cccc(C(=O)Nc2nnc(-c3cccs3)o2)c1 | inactive: -3.6% | 
2 | Cc1cc(C(=O)N/N=C2/CC(C)CC(C)(C)C2)c(C)o1 (configuration not stated) |  | active: 21.2 µM
3 | NC(=O)c1c(N)sc(=S)n1CC1CCCO1 (configuration not stated) |  | inconclusive: 37.7 µM [inhibitor, single point]
4 | Cn1cccc1Cc1nnc(SCC(=O)Nc2ccccc2)n1-c1ccc(F)cc1 |  | inconclusive: 37.7 µM [inhibitor, single point]
5 | COc1ccc(OC)c(NC(=O)CSc2nnc(C3CCCCC3)n2-c2ccccc2)c1 |  | active: 26.7 µM
6 | O=C(CSC1=NCCS1)Nc1ccccc1F |  | inconclusive: 26.7 µM [inhibitor, single point]
7 | CCCNC(=O)c1cc(C2CCCCN2C(=O)c2ccc3c(c2)CCO3)on1 (configuration not stated) | inactive: -1.91% | 
8 | O=c1[nH]c(Nc2ccccc2)cc2ccccc12 |  | inconclusive: 26.7 µM [inhibitor, partial curve]
9 | O=S1(=O)CC(N2CCCCC2)CN1Cc1cn(Cc2ccc(Cl)cc2)nn1 (configuration not stated) | inactive: 2.68% | 
10 | Cc1cccc(N2C(S)=C(C#N)C(=O)NC2c2cccs2)c1 (configuration not stated) |  | inconclusive: 29.9 µM [inhibitor, single point]
11 | CC1=NN(c2cccc(C(=O)O)c2)C(=O)/C1=C\C=C\c1ccco1 |  | active: 8.44 µM
12 | CCOC(=O)/C(=C\c1c[nH]c2ccccc12)NC(C)=O |  | active: 21.2 µM
13 | O=C(NCc1ccccc1Cl)c1cccc(C(F)(F)F)c1 | inactive: -7.14% | 
14 | CC(CCc1ccccc1)NC(=O)CN1CCSc2ccccc21 (configuration not stated) |  | inconclusive: 29.9 µM [inhibitor, single point]
15 | COCCNC(=O)CCC1CCN(Cc2cccc(-c3ccc(C)o3)c2)CC1 | inactive: -5.17% | 
16 | COc1ccc(-c2nnn(CC(=O)N3CCN(c4ccc(F)cc4)CC3)n2)cc1 |  | inconclusive: 26.7 µM [inhibitor, single point]
17 | Cc1cc(C(=O)N/N=C/C=C/c2ccccc2)n[nH]1 | inactive: -1.91% | 
18 | Cc1ccc(S(=O)(=O)N/N=C/c2c(F)cccc2Cl)cc1 | inconclusive: -7.45% [inhibitor] | 
19 | Cc1c(NC2=C(Cl)C(=O)N(c3ccccc3Cl)C2=O)c(=O)n(-c2ccccc2)n1C |  | inconclusive: 23.8 µM [inhibitor, single point]
20 | O=C(O)c1ccc(C2SCC(=O)N2Cc2ccco2)cc1 (configuration not stated) | inactive: -0.997% | 
21 | Cc1ccc(C(=O)NCCc2nnc3ccc(SCC(=O)Nc4ccccc4F)nn23)cc1 | inactive: -12.4% | 
22 | CCCc1cc(=O)n2[nH]c(C)c(-c3ccc(OC)cc3)c2n1 |  | inconclusive: 21.2 µM [inhibitor, partial curve]
23 | CCNc1nc(OC)nc(Oc2ccc(=O)n(-c3ccccc3)n2)n1 | inconclusive: -31.8% [inhibitor] | 
24 | O=C(/C=C/c1ccco1)Oc1ccc(C(=S)N2CCOCC2)cc1 |  | active: 11.9 µM

Row | Structure (SMILES) | max response, negative = inhibition | Potency
25 | CC(=O)Nc1ccc(OCCOc2ccc(/C=C3\C(=N)N4N=C(C)SC4=NC3=O)cc2)cc1 | inconclusive: -33.9% [inhibitor] | 
26 | CCOc1ccc2nc(N3C(=O)C(O)=C(C(=O)c4ccco4)C3c3ccco3)sc2c1 (configuration not stated) |  | inconclusive: 23.8 µM [inhibitor, partial curve]
27 | CC(C)(C)c1ccc(C(=O)NCCCNC(=O)c2ccco2)cc1 |  | inconclusive: 37.7 µM [inhibitor, partial curve]
28 | CCC1CCc2c(sc(NC(=O)C3CC=CCC3C(=O)O)c2C#N)C1 (configuration not stated) |  | inconclusive: 9.47 µM [inhibitor, partial curve]
29 | CSc1nnc(C)c(/C=C/NOCc2cccc(F)c2)n1 | inactive: 0.0834% | 
30 | O=c1c2ccccc2[nH]c(=S)n1-c1cccc(S(=O)(=O)N2CCCC2)c1 | inconclusive: -33.5% [inhibitor] | 
31 | CCC(C)(C)n1nnnc1C(c1cc2ccc(OC)cc2[nH]c1=O)N1CCc2ccccc2C1 (configuration not stated) |  | inconclusive: 21.2 µM [inhibitor, partial curve]
32 | COc1ccc2[nH]c3c(c2c1)CCN1C(=O)C(CC(=O)NCCC2=CCCCC2)C[C@H](C(=O)N2CCOCC2)[C@@]31C (some centres not stated) |  | inconclusive: 23.8 µM [inhibitor, partial curve]
33 | Cc1nc2nc[nH]n2c(=O)c1NS(C)(=O)=O |  | inconclusive: 29.9 µM [inhibitor, single point]
34 | O=C(NC(=S)N1CCCCC1)c1csc([N+](=O)[O-])c1 |  | inconclusive: 26.7 µM [inhibitor, single point]
35 | O=S(=O)(c1c(F)cccc1F)N1CCN(C(=S)NCc2ccc3c(c2)OCO3)CC1 |  | inconclusive: 15 µM [inhibitor, partial curve]
36 | CC1(OC(=O)C2CCCC2)C(=O)C=C2C=C(c3ccc(C#N)cc3)OC=C2C1=O (configuration not stated) |  | inconclusive: 18.9 µM [inhibitor, partial curve]
37 | CCOC(=O)C(NC(=O)Nc1cccc(C)n1)(OCC(F)(F)F)C(F)(F)F (configuration not stated) |  | inconclusive: 23.8 µM [inhibitor, partial curve]
38 | CC(=O)Nc1ccc(S(=O)(=O)Nc2ccc(N3CCCCC3)cc2)cc1 | inactive: -2.92% | 
39 | O=C(Nc1n[nH]c(=S)s1)c1ccco1 |  | inconclusive: 29.9 µM [inhibitor, partial curve]
40 | CC(=O)c1ccc(N2CCN(C(=O)COc3ccccc3F)CC2)c(F)c1 |  | inconclusive: 29.9 µM [inhibitor, partial curve]
41 | CCCn1c(=O)c2ccccc2n2c(SCC(=O)c3ccccc3)nnc12 | inactive: -18.9% | 
42 | O=C1CCC(C(=O)OCC(=O)Nc2ccc(OC(F)F)cc2)=NN1 | inactive: -4.05% | 
43 | CCOc1ccc(N=C2Sc3nc4ccc(C)cc4cc3CN2CCOC)cc1 | inactive: -7% | 
44 | C[C@H](CO)N1C[C@H](C)[C@@H](CN(C)S(=O)(=O)c2ccc(-n3cccn3)cc2)OCc2cn(nn2)CCCC1=O | inconclusive: -35% [inhibitor] | 
45 | COc1cccc(/C=N/NC(=O)Cn2cnc3c2c(=O)n(C)c(=O)n3C)c1 |  | active: 23.8 µM
46 | C=CCn1c(SCC(=O)NC2CC2)nc2sc(CC)cc2c1=O |  | active: 26.7 µM
47 | COc1ccc(NC(=O)Cn2c(C)csc2=O)c(OC)c1 |  | inconclusive: 26.7 µM [inhibitor, single point]
48 | Nc1nc(-c2ccccc2)c(CCCOc2ccc(NC(=O)CBr)cc2)c(=O)[nH]1 |  | inconclusive: 18.9 µM [inhibitor, partial curve]

From compound 34 to 38, as listed above:
Row | Structure (SMILES) | max response, negative = inhibition | Potency
34 | O=C(NC(=S)N1CCCCC1)c1csc([N+](=O)[O-])c1 |  | inconclusive: 26.7 µM [inhibitor, single point]
35 | O=S(=O)(c1c(F)cccc1F)N1CCN(C(=S)NCc2ccc3c(c2)OCO3)CC1 |  | inconclusive: 15 µM [inhibitor, partial curve]
36 | CC1(OC(=O)C2CCCC2)C(=O)C=C2C=C(c3ccc(C#N)cc3)OC=C2C1=O (configuration not stated) |  | inconclusive: 18.9 µM [inhibitor, partial curve]
37 | CCOC(=O)C(NC(=O)Nc1cccc(C)n1)(OCC(F)(F)F)C(F)(F)F (configuration not stated) |  | inconclusive: 23.8 µM [inhibitor, partial curve]
38 | CC(=O)Nc1ccc(S(=O)(=O)Nc2ccc(N3CCCCC3)cc2)cc1 | inactive: -2.92% | 

Carrying on.

Row | Structure (SMILES) | max response, negative = inhibition | Potency
49 | NS(=O)(=O)c1ccc(NC(=O)Cc2cccs2)cc1 | inactive: 1.24% | 
50 | Cc1cc(NC(=O)Nc2ccccc2)n(C(C)(C)C)n1 | inactive: -8.91% | 
51 | CCCN(CCC)C(=O)c1ccc2c(c1)N(Cc1ccccc1)C(=O)CS2=O (configuration not stated) |  | active: 26.7 µM
52 | CCCCn1c(NC(=O)c2ccco2)c(S(=O)(=O)c2ccc(C)cc2)c2nc3ccccc3nc21 | inconclusive: -35% [inhibitor] | 
53 | Cc1cc(C(=O)Nc2nc(-c3ccccn3)cs2)ccc1[N+](=O)[O-] |  | inconclusive: 18.9 µM [inhibitor, partial curve]
54 | O=C(CN(c1cccc(Br)c1)S(=O)(=O)c1ccccc1)N/N=C/c1cc([N+](=O)[O-])ccc1O |  | inconclusive: 37.7 µM [inhibitor, single point]
55 | COC(=O)c1ccccc1NC(=O)NCc1ccncc1 |  | active: 21.2 µM
56 | Cc1c(/C(O)=C2\C(=O)C(=O)N(CCN(C)C)C2c2cccs2)cnn1-c1ccccc1 (configuration not stated) |  | inconclusive: 21.2 µM [inhibitor, single point]
57 | CN(C(=O)c1cccc(NC(=O)Cc2cccc(NC(=O)C3CCCN(C(=O)C4CCCCC4)C3)c2)c1)C1CCC1 (configuration not stated) | inactive: 2.23% | 
58 | CCS(=O)(=O)Nc1ccc2c(c1)OCO2 |  | inconclusive: 37.7 µM [inhibitor, single point]
59 | CCOC(=O)c1c(-c2ccccc2)csc1NC(=O)c1cc(-c2ccccc2OC)on1 |  | active: 23.8 µM
60 | CN(C)c1ncnc2c1ncn2[C@H]1CN(Cc2ccc3c(c2)OCO3)C[C@@H](CO)O1 | inactive: 1.63% | 
61 | O=C(C[n+]1ccc(Cc2ccccc2)cc1)Nc1ccccc1 |  | inconclusive: 16.8 µM [inhibitor, partial curve]
62 | CC(=O)Nc1nc(=S)ss1 |  | active: 23.8 µM
63 | O=C(O)c1c(NC(=O)c2cccc3ccccc23)sc2c1CCC2 |  | inconclusive: 26.7 µM [inhibitor, partial curve]
64 | Oc1ccc(C(=S)N2CCCCCC2)cc1 |  | inconclusive: 26.7 µM [inhibitor, partial curve]
65 | O=[N+]([O-])c1ccc(Oc2cccc(Br)c2)c2ccncc12 |  | inconclusive: 29.9 µM [inhibitor, partial curve]
66 | Cc1ccc(S(=O)(=O)N2CC=C(C(=O)NCc3ccccc3)CC2)cc1 |  | inconclusive: 29.9 µM [inhibitor, partial curve]
67 | CC(NC(=O)Cc1ccccc1F)c1ccc(F)cc1 (configuration not stated) |  | active: 23.8 µM
68 | C=CCOC(=O)C1=C(C)NC(SCC(=O)OCC)=C(C#N)C1c1ccc(C)cc1 (configuration not stated) | inconclusive: -30.7% [inhibitor] | 
69 | CCOc1cccc(-c2nnc3sc(COc4ccc(OC)cc4)nn23)c1 |  | inconclusive: 18.9 µM [inhibitor, partial curve]
70 | COC(=O)CCNC(=O)Cc1ccc(S(=O)(=O)N2CCCCC2)s1 | inactive: -18.8% | 
71 | COc1ccc(C(=O)NCCC(=O)N2CCC3(CC2)NCCc2[nH]cnc23)cc1 |  | active: 26.7 µM
72 | CCOC(=O)N/N=C\c1ccc(-c2cccc(C(F)(F)F)c2)o1 |  | inconclusive: 21.2 µM [inhibitor, partial curve]
